# From PubChem BioAssay AID493149 (Broad Institute, 2011)
# Listed are the inconclusive results; actives and inactives stand elsewhere.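 The calls were made as follows: active = every repeat run gives a falling-signal curve whose half-maximal concentration stays within the set limit; inconclusive = runs disagree, flat moderate inhibition, or unreliable fit; inactive = flat weak response, opposite effect, or too weak.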
# Experiment: growth inhibition of resistant C. albicans with fluconazole, dose response, CaCi-8 strain, Alamar Blue, dry powder, set 9 (AID 493149)
# Conditions: C. albicans CaCi-8 + fluconazole, 48 h; at 26 µM (top of the series)
# Procedure, shortened: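 Material: Fluconazole-resistant C. albicans strain CaCi-8 | Timing: 48 h compound growth at 37 °C, 2 h RT dye | Medium: Defined RPMI/MOPS medium, glucose, uridine | Signal: Alamar Blue fluorescence, 1:200 final, Ex 544 nm, Em 590 nm | Also added: Fluconazole at 8 µg/mL final, sub-toxic level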
row,Compound,"activity change, negative = inhibition"
1,CN(C)C(=O)Cn1nc(-c2ccccc2)c2ccccc21,inconclusive: -22.3%
2,COCCn1nc(-c2ccccc2)c2ccccc21,inconclusive: 2.53%
